Laboratory results: US5389644A, “1,4-dihydropyridine compounds” (priority 1992, dated 1995)

Experiments:
KB-A1 = assay: Cytotoxicity: reversal of resistance to adriamycin (reversion factor), line KB-A1; type: cell-based, Human
Method: (§1) The parameter measured is the cytotoxicity of the antitumour drug, quantified in the absence and in the presence of the reversing compound. […] The compounds tested for their capacity to reverse the resistance are added at the same time as the cytotoxic agent. The cells are then incubated for 4 days.

DC-3F/AD = assay: Cytotoxicity: reversal of resistance to actinomycin D (reversion factor), line DC-3F/AD; type: cell-based, Chinese hamster
Method: as §1, with “compound. Two resistant cell lines were used: 1 Chinese hamster lung line, DC-3F/AD, the resistance of which was induced by actinomycin D.” for “compound.”

Structure (SMILES): COC(=O)C1=C(C)NC(C)=C(C(=O)OC)C1c1ccccc1[N+](=O)[O-] [NIFEDIPINE, nifedipine, reference compound]
- reversion factor (RF) (KB-A1; compound 1 μM): 1.0
- reversion factor (RF) (KB-A1; compound 5 μM): 1.0
- reversion factor (RF) (DC-3F/AD; compound 1 μM): 1.2
- reversion factor (RF) (DC-3F/AD; compound 5 μM): 5.8
